Taken from: PubChem BioAssay AID1224830 (NIAID, 2016)
This is a random part of about 18,000 reagents. Of all reagents, about 2,900 (16%) were called active. 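Calls are made per well; low scores hint the gene aids the LPS response, high scores that it dampens it.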 Entries without a mark were called inactive. Repeated entries: four replicate wells of each siRNA pool.

Purpose: 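Regulators of TLR4 signalling towards TNF-alpha in macrophage-like cells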 (primary screen)
Cells: human THP-1 monocytic leukaemia cells, TNF dual-luciferase reporter clone, PMA-differentiated to macrophage-like cells
Reagents: siRNA pool against human genes, 50 nM
Timing: LPS for 4 h, given about 3 days after siRNA transfection
Conditions: bacterial LPS (TLR4 ligand), 10 ng/ml
Measurement: 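Ratio of firefly to renilla light, scaled to the plate median and expressed as a robust z-score per replicate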
Direction: TNF reporter robust z-score: higher = stronger TNF reporter response to LPS
Active means: 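Each well counts as active if its z-score is over 2.8 or under -1.5; controls are left without a call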

no.	gene symbol	TNF reporter robust z-score
1	MARCHF3	1.59
2	MARCHF3	0.29
3	MARCHF3	0.11
4	MARCHF3	1.42
5	OSCAR	0.29
6	OSCAR	0.35
7	OSCAR	0.73
8	OSCAR	0.17
9	UQCRC2	-0.45
10	UQCRC2	0.56
11	UQCRC2	-0.92
12	UQCRC2	0.59
13	GUCA1B	-1.07
14	GUCA1B	0.4
15	GUCA1B	0.32
16	GUCA1B	3.13 (active)
17	SNORC	-0.22
18	SNORC	0.77
19	SNORC	1.28
20	SNORC	1.89
21	EMILIN1	-0.79
22	EMILIN1	-0.89
23	EMILIN1	-0.8
24	EMILIN1	-0.92
25	IDE	0.32
26	IDE	0.39
27	IDE	-0.57
28	IDE	-0.06
29	DRICH1	1.78
30	DRICH1	0.95
31	DRICH1	1.52
32	DRICH1	1.56
33	OR4K13	4.41 (active)
34	OR4K13	3.34 (active)
35	OR4K13	1.67
36	OR4K13	1.98
37	KLHL22	-0.32
38	KLHL22	4.8 (active)
39	KLHL22	0.3
40	KLHL22	1.89
41	LRRFIP1	0.22
42	LRRFIP1	0.92
43	LRRFIP1	0.05
44	LRRFIP1	0.58
45	DNALI1	-0.4
46	DNALI1	1.25
47	DNALI1	0.33
48	DNALI1	2.4
49	ERICH3	-1.29
50	ERICH3	-0.04
51	ERICH3	-0.39
52	ERICH3	0.34
53	KIAA1328	1.8
54	KIAA1328	1.89
55	KIAA1328	1.65
56	KIAA1328	1.53
57	KCNE1	-0.76
58	KCNE1	-0.75
59	KCNE1	-0.36
60	KCNE1	-0.48
61	TBC1D17	0.65
62	TBC1D17	0.25
63	TBC1D17	0.21
64	TBC1D17	0.6
65	IFNAR2	0.48
66	IFNAR2	0.25
67	IFNAR2	0.83
68	IFNAR2	1.48
69	CYB5A	1.98
70	CYB5A	3.05 (active)
71	CYB5A	2.35
72	CYB5A	3.83 (active)
73	LEMD2	-0.04
74	LEMD2	0.49
75	LEMD2	-0.13
76	LEMD2	0.56
77	ATP6V1A	-0.41
78	ATP6V1A	-0.27
79	ATP6V1A	-1.1
80	ATP6V1A	-0.2
81	ARMC12	1.51
82	ARMC12	3.36 (active)
83	ARMC12	2.26
84	ARMC12	2.35
85	HAAO	-0.41
86	HAAO	-0.34
87	HAAO	-0.18
88	HAAO	0.32
89	TBX2	1.03
90	TBX2	3.1 (active)
91	TBX2	1.69
92	TBX2	-0.07
93	TFEC	0.78
94	TFEC	1.12
95	TFEC	1.36
96	TFEC	-0.01
97	NAPEPLD	0
98	NAPEPLD	0.49
99	NAPEPLD	-0.46
100	NAPEPLD	0.05
101	PRKDC	1.17
102	PRKDC	4.22 (active)
103	PRKDC	1.7
104	PRKDC	0.31
105	CDK5RAP3	-0.18
106	CDK5RAP3	0.21
107	CDK5RAP3	-0.25
108	CDK5RAP3	0.22
109	ZYG11B	2.12
110	ZYG11B	1.81
111	ZYG11B	-0.29
112	ZYG11B	1.36

Laid out differently: 16 of the entries above.
HAAO
- TNF reporter robust z-score: 0.32

TBX2
- TNF reporter robust z-score: 1.03

TBX2
- TNF reporter robust z-score: 3.1 (active)

TBX2
- TNF reporter robust z-score: 1.69

TBX2
- TNF reporter robust z-score: -0.07

TFEC
- TNF reporter robust z-score: 0.78

TFEC
- TNF reporter robust z-score: 1.12

TFEC
- TNF reporter robust z-score: 1.36

TFEC
- TNF reporter robust z-score: -0.01

NAPEPLD
- TNF reporter robust z-score: 0

NAPEPLD
- TNF reporter robust z-score: 0.49

NAPEPLD
- TNF reporter robust z-score: -0.46

NAPEPLD
- TNF reporter robust z-score: 0.05

PRKDC
- TNF reporter robust z-score: 1.17

PRKDC
- TNF reporter robust z-score: 4.22 (active)

PRKDC
- TNF reporter robust z-score: 1.7
